Laboratory results taken from patent US6403087.
Results are given in words; binding and its absence hold for the method and conditions named. Some entries that bind do so weakly or less than the wild type.

By UniProt entry, the sequences of proteins in these tests, tags left out. Where a name states a change or a piece, a line headed by the entry shows the natural chain unless it says otherwise. Residues count along the entry.
UniProt P09225: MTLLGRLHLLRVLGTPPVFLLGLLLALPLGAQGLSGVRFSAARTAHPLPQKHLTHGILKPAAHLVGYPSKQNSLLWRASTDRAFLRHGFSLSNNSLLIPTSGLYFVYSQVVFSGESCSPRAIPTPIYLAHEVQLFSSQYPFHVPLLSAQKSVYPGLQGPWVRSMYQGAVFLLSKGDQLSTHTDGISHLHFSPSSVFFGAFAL
UniProt P41155: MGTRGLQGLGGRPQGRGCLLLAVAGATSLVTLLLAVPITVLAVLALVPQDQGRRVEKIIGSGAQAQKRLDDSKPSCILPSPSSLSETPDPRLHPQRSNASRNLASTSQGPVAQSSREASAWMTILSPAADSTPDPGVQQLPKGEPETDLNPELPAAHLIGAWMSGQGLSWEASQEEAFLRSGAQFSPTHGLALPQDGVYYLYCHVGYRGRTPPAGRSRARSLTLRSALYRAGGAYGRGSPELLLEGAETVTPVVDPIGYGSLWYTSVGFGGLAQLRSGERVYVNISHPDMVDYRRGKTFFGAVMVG
UniProt P50284, residues 31-223: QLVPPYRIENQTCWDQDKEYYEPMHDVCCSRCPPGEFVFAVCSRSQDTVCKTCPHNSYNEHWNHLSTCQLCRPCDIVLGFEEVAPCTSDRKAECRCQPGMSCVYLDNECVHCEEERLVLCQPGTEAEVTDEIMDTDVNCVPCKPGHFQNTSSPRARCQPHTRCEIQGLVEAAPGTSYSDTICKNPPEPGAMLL

Target: soluble murine LT-α/β ligand (mLT-α/β) (mouse) (UniProt P09225+P41155)
Experiment: told of the WEHI 164 cytotoxicity assay, fusion protein at 10 µg/ml

## soluble murine LT-β receptor coupled to the human IgG1 Fc domain (mLT-β-R-Fc) (from UniProt P50284 31-223) (Fc fusion)
  binding: binds
